In PMC6945409:
These are yes or no findings as the source states them, for the method shown. Binding seen in cells or lysates may run through a third protein.

Sequences of proteins named here, by UniProt entry; tags and fusion partners are left off. Residues count along the entry.
UniProt P32883: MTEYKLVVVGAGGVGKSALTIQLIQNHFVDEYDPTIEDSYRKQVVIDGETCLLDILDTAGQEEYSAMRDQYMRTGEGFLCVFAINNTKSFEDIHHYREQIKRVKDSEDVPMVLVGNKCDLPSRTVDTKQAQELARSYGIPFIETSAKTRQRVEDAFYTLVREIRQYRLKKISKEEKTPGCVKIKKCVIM
UniProt P08556: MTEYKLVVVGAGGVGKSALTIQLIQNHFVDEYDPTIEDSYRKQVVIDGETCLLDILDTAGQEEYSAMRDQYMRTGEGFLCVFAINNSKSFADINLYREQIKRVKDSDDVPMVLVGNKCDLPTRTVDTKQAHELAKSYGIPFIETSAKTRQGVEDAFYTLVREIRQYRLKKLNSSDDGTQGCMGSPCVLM
UniProt P27512, residues 20-289: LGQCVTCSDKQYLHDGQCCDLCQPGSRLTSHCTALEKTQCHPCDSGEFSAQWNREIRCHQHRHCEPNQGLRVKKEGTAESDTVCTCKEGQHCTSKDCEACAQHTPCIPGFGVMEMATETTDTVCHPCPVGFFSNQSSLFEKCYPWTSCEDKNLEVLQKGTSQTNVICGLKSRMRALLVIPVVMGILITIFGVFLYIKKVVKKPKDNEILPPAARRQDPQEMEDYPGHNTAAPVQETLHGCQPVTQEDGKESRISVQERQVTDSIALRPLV
UniProt P25911: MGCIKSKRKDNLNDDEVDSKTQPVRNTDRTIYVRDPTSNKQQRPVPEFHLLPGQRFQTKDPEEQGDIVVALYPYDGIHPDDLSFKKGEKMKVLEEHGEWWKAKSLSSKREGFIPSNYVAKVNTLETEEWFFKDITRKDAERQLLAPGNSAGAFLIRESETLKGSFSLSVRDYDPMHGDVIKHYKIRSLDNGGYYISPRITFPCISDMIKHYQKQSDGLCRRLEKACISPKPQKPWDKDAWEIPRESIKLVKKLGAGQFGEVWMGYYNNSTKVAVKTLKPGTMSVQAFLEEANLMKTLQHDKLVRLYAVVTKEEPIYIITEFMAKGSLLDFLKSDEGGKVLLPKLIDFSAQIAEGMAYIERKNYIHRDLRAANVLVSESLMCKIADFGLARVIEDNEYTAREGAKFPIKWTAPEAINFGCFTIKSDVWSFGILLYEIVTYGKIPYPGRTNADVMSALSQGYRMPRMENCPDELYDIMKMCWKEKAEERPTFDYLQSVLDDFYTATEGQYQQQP

Tests used:
Experiment in all cases: co-IP; endogenous proteins; macrophages stimulated with anti-CD40 antibody (1, 3, 6 ug/ml; 3 or 10 min), lysed in buffer with NP-40; 200 ug protein with 1 ug antibody and protein G agarose overnight at 4 C, washed 4 times, western blot
[1] = target: H-Ras (Harvey Rat Sarcoma) (mouse (endogenous in BALB/c peritoneal macrophages)) (UniProt Q61411)
[2] = target: K-Ras (Kirsten rat sarcoma) (mouse (endogenous in BALB/c peritoneal macrophages)) (UniProt P32883)
[3] = target: N-Ras (Neuroblastoma Rat Sarcoma) (mouse (endogenous in BALB/c peritoneal macrophages)) (UniProt P08556)

Measured: binding

CD40 (from UniProt P27512 20-289) (receptor)
no binding: [1] | [2] | [3]

Lyn (Lck/Yes novel tyrosine kinase) (from UniProt P25911 1-512)
no binding: [1] | [2] | [3]
